Laboratory results: publication PMC3161108
No constants are given. Whether binding was seen depends on the method and setting. In cells and extracts the contact can be indirect. Some entries that bind do so weakly or less than the wild type. Where a sequence is shown, tags or fusion partners need not be part of it.

Target: T1, HA-tagged zebrafish RNR M1 subunit (R1) (zebrafish) (UniProt P79732)
T1 sequence: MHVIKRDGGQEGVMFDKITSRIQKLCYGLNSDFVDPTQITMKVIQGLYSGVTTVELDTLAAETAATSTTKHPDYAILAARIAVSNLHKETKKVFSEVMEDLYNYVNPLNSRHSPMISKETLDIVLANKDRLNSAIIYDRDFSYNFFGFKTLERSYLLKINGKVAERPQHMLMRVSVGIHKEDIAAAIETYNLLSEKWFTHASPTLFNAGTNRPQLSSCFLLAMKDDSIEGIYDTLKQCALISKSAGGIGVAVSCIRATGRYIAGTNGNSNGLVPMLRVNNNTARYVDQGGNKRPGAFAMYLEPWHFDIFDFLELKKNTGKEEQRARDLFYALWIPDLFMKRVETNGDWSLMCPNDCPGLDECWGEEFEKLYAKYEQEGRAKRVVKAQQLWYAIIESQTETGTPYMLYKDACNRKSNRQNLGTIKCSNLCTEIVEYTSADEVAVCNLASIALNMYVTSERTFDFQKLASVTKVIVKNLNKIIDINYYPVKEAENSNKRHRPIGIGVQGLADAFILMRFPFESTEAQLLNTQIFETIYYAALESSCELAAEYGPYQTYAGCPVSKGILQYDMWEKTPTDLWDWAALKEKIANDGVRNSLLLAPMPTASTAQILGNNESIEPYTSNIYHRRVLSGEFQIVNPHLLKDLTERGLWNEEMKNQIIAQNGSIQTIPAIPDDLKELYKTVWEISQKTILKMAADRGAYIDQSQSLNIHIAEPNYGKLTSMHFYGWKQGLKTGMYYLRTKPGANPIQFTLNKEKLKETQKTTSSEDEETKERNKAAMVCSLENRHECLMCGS
Test: co-IP; 293T cells co-transfected with HA-R1 and one of the Flag-R2 isoforms; at 45 h protein extracts immunoprecipitated with anti-HA or anti-Flag antibodies; Western blot with the other antibody

- binding: binds
B1: Flag-tagged zebrafish R2, normal form (protein, UniProt P79733 1-386)
chain: MSSTRSPLKTKNENTISTKMNNMSFVDKENTPPSLSSTRILASKTARKIFDESEGQSKAKKGAVEEEPLLKENPHRFVIFPIQYHDIWQMYKKAEASFWTAEEVDLSKDLQHWDSLKDEERYFISHVLAFFAASDGIVNENLVERFTQEVQVTEARCFYGFQIAMENIHSEMYSLLIDTYIKDSKEREFLFNAIETMPCVKKKADWALNWIGDKNARYGERVVAFAAVEGIFFSGSFASIFWLKKRGLMPGLTFSNELISRDEGLHCDFACLMFKHLINKPSEETVKKIIMNAVEIEQEFLTDALPVKLIGMNCDLMKQYIEFVADRLLLELGFDKVYRVENPFDFMENISLEGKTNFFEKRVGEYQRMGVMSGTTDNTFTLDADF
